Results on 3 molecules are retold here after US20120005765A1, “ANIMAL MODEL FOR PARKINSON'S DISEASE” (Saint Louis University, priority 2010, published 2012).

Molecules are shown by their SMILES.

This data set in a line: Levels of DOPAL, DA and HVA in human substantia nigra and striatum by MHPLC-EC. As to conditions: post-mortem human brain, means±SE of at least six replicates.
On to `NCCc1ccc(O)c(O)c1` [DA, dopamine], for which the “Brain tissue level, Caudate” value stood at 191 ± 4.4 pg/mg wet weight; the “Brain tissue level, Putamen” value worked out at 99 ± 2.5 pg/mg wet weight; the “Brain tissue level, Substantia Nigra” value was found to be 275 ± 4.9 pg/mg wet weight.
For `O=CCc1ccc(O)c(O)c1` [DOPAL, 3,4-dihydroxyphenylacetaldehyde], in that order: 149 ± 3.7 pg/mg wet weight, 120 ± 2.9 pg/mg wet weight and 397 ± 4.8 pg/mg wet weight.
On the same counts, the results for `COc1cc(CC(=O)O)ccc1O` [HVA, homovanillic acid] are 113 ± 2.7 pg/mg wet weight, 132 ± 3.5 pg/mg wet weight and 321 ± 4.9 pg/mg wet weight.
